Counter-ions that a name gives are not always drawn.
How the values were obtained:
Type in all cases: cell-based
[1] = tested on: human small cell lung cancer cell lines (DMS-114, DMS-153, SHP-77); assay: In vitro inhibition of SCLC cell lines, summary statements; details: across SCLC cell lines, depending on cell line tested, read-out: IC50 values, inhibits growth and/or kills SCLC cells
Description: (§1) In vitro inhibition of small cell lung cancer (SCLC) cell lines by the compound of COTI-4 was done with standard human tumor cells (established cell lines available from the American Type Tissue culture collection). Cells were plated in plastic tissue culture plates and grown under standard conditions for each cell line, in carbon dioxide/oxygen atmosphere in plastic tissue culture plates, in the presence of each of the compound of COTI-4, as well as COTI-2MO5 (or COTI-2) and COTI-219MO5 (or COTI-219) compounds (0-1 mM), versus Gleevec® (0-100 mM) at 35° C. for 3 days. Control cultures were treated with vehicle minus compound or Gleevec®. Cells were counted after 3 days in culture and at a cell density of no more than 80%.
as §1, with “of formula 1A” for “of COTI-4”, “of the compounds” for “of each”, “of Formula 1A” for “of the compound of COTI-4, as well as COTI-2MO5 (or COTI-2) and COTI-219MO5 (or COTI-219) compounds (0-1 mM),”

[2] = tested on: A460 large cell carcinoma-derived cells (NSCLC; also printed H460); assay: In vitro tumor cell growth inhibition, cell count after 3 days; details: Homo sapiens, NCI-H460, 72 h, 35° C.
Description: (§2) In vitro inhibition of non-small cell lung cancer (NSCLC) cell lines by the compound of Formula 1B (COTI-4) was evaluated. […] Cells were counted after 3 days in culture and at a cell density of no more than 80%.
(§3) In vitro inhibition of non-small cell lung cancer (NSCLC) cell lines by the compound of Formula 1A is evaluated. […] Cells are counted after 3 days in culture and at a cell density of no more than 80%.
(§4) Briefly, cells were plated in plastic tissue culture plates and grown under standard conditions for each cell line, in carbon dioxide/oxygen atmosphere in plastic tissue culture plates, in the presence of COTI-4 or COTI-4A compounds at 35° C. for 3 days. Control cultures were treated with vehicle minus compound. Cells were counted after 3 days in culture and at a cell density of no more than 80%. The following cell lines, obtained from the National Cancer Institute, were tested: human SCLC cell lines DMS 153, DMS114, SHP77; human NSCLC cell lines H226, A460, A549; human breast cancer cell lines T47D, MCF7; human colon cancer cell line HT29; and, human Leukemia cell lines K562, HL60.

[3] = tested on: H226 squamous cell carcinoma-derived cells (NSCLC); assay: as above; details: Homo sapiens, NCI-H226, 72 h, 35° C.
Description: as §2, §3, §4

IC50 [2]: 81 µM
IC50 [3]: 72 µM
SMILES: Cc1ccc(NC(=O)c2ccc(CN3CCN(C)CC3)cc2)cc1Nc1nccc(-c2cccnc2)n1 [Gleevec ®, imatinib mesylate, reference compound]
IC50 [1]: 15 to 19 µM

Source: patent US8466151B2, “Compounds and method for treatment of cancer” (Critical Outcome Technologies, Inc., priority 2007, dated 2013)
